Experimental data published in PubChem BioAssay AID651640 (Broad Institute, 2012).
Screen size: about 350,000 compounds; about 6,000 (1.7%) were called active. This list was built around the results that the source calls inconclusive (neither active nor inactive); the mix of calls is not that of the screen. Rule as the data show it: active = CPE inhibition above about 20% (passing the limit was not always enough); inconclusive = no clear call, values can overlap the other calls; tested in BHK-21 cells.

experiment: protection of cells from dengue 2 killing – plate reader, single concentration, primary screen (AID 651640); details: DENV2-infected cells, cytopathic effect rescue, at 9.99 µM, hits give high values;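 also: 0% = median of neutral control wells and 100% = median of positive control wells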

SMILES | CPE inhibition
Cc1csc2sc(-c3ccnc(SCC(=O)NCc4ccccc4)n3)c(C)c12 | inactive: -1.39%
CCCNC(=O)C1(C)CCCN(C(=O)c2ccc3ccccc3c2)C1 (stereo not drawn) | inconclusive: 44.5%
CN(C(=S)SCc1ccccc1)C1CCS(=O)(=O)C1 (stereo not drawn) | inconclusive: 25.1%
COc1cccc(CNC(=O)[C@H]2[C@H](CO)[C@H]3Cn4c(ccc(-c5ccncc5)c4=O)[C@H]3N2C)c1 | active: 138%
OC(c1ccccc1)c1nc(-c2cccc3cccnc23)cs1 (stereo not drawn) | inconclusive: 20.5%
C[C@H]1CN(c2ccc(Br)cc2)C(=O)[C@@H]1CC(=O)Nc1ccccc1 | inconclusive: 32.4%
Cc1ccc(C(=O)N2CCN(Cc3ccc4c(c3)OCO4)CC2)c(Cl)c1 | inconclusive: 27.9%
CCN1CCCC1CNC(=O)CN1C(=O)COc2ccc(C)cc21 (stereo not drawn) | inconclusive: 29.8%
CCNC(=O)Nc1ccc2c(c1)C(=O)N(C)[C@@H]1CC[C@H](CC(=O)NCC3CC3)O[C@@H]1CO2 | inconclusive: 34.8%
CCCCN1CC(COCc2ccccc2)Oc2cccc(N3CCCCC3)c2S1(=O)=O (stereo not drawn) | inconclusive: 38.2%
CCOc1ccc(NC(=O)CSc2nncc(=O)n2N)cc1 | inconclusive: 49.4%
O=C(Nc1nccs1)c1ccccn1 | inactive: 7.34%
CC(C)c1cn(CC[C@@H]2CC[C@H](NS(=O)(=O)Cc3ccccc3)[C@H](CO)O2)nn1 | inconclusive: 31%
C[C@@H]1CCCCO[C@@H](CN(C)C(=O)Nc2ccccc2)[C@H](C)CN([C@@H](C)CO)C(=O)c2cc(N(C)C)ccc2O1 | inconclusive: 62.8%
COc1ccccc1OCCNC(=O)c1cccc(S(=O)(=O)N2CCN(C)CC2)c1 | inconclusive: 40.8%
CCc1ccc2cc(C)cc(C)c2n1 | active: 34.1%
CCOC(=O)c1ccc(N=c2scc(C)n2CC)cc1 | inactive: -7.19%
Cc1cc(C(=O)COC(=O)/C=C/c2cccc(Br)c2)c(C)n1C | inconclusive: 44.4%
Cc1cccc(NNC(=O)C(=O)NNc2cccc(C)c2)c1 | inconclusive: 27.4%
CCCNC(=O)N(C)C[C@@H]1Oc2cc(C3=CCCCC3)ccc2S(=O)(=O)N([C@H](C)CO)C[C@H]1C | active: 46.9%
COc1ccc(NC(=O)Nc2ccc3c(c2)C(=O)N([C@H](C)CO)C[C@H](C)[C@@H](CN(C)C)OCCCC[C@@H](C)O3)cc1 | inconclusive: 73.7%
CO[C@H]1CN(C)C(=O)c2ccc(NS(C)(=O)=O)cc2OC[C@H](C)N(CCC(F)(F)F)C[C@H]1C | inactive: 14.3%
O=[N+]([O-])c1cccc(S(=O)(=O)Nc2nc3ccccc3nc2Nc2cccc(S(=O)(=O)N3CCCCC3)c2)c1 | inactive: -2.41%
Cc1noc(C)c1NC(=O)Nc1ccc2c(c1)C(=O)N([C@@H](C)CO)C[C@@H](C)[C@@H](CN(C)Cc1ccc(Cl)c(Cl)c1)OCCCC[C@@H](C)O2 | active: 30.4%
C[C@H](CO)N1C[C@H](C)[C@@H](CN(C)S(C)(=O)=O)Oc2ccc(NC(=O)CCC(F)(F)F)cc2CC1=O | inactive: 0.439%

SMILES | CPE inhibition
COc1ccccc1OCCNC(=O)CN1C(=O)NC2(CCCC2)C1=O | inconclusive: 34.4%
COc1ccc(O)c(CN2CCCC(N3CCc4ccccc4C3)C2)c1 (stereo not drawn) | inconclusive: 35.4%
O=C(c1ccco1)N1CCN(C(=O)c2ccc(-c3cccc(C(F)(F)F)c3)o2)CC1 | active: 101%
CCC(=O)N1CC2(C1)[C@@H](c1ccc(-c3ccccc3C)cc1)[C@@H](CO)N2C(=O)CC | active: 36.8%
O=C(NCCN1CCOCC1)c1cc([N+](=O)[O-])ccc1Cl | inconclusive: 22.6%
O=C(c1cccnc1)N1CC(=O)N2[C@H](CO)[C@H](c3ccc(/C=C/c4ccccc4)cc3)[C@H]2C1 | inactive: -5.37%
C[C@@H]1CCCCO[C@H](CN(C)S(=O)(=O)c2ccc(Cl)cc2)[C@@H](C)CN([C@H](C)CO)C(=O)c2cc(NC(=O)CCC(F)(F)F)ccc2O1 | inactive: 12%
Cc1ccc(S(=O)(=O)N(CC(O)CN2CCCCC2)c2cccc([N+](=O)[O-])c2)cc1 (stereo not drawn) | inconclusive: 23%
O=C(CN1C(=O)NC2(CCCCC2)C1=O)Nc1ccc2c(c1)OCCCO2 | inconclusive: 21.2%
COc1ccc(CNC(=O)CCS(=O)(=O)c2ccc3c(c2)NC(=O)CS3)cc1 | active: 35.1%
c1cncc(CNc2ncnc3ccc(-c4ccoc4)cc23)c1 | inconclusive: 34.7%
Cc1noc(C)c1NC(=O)Nc1ccc2c(c1)CC(=O)N([C@H](C)CO)C[C@H](C)[C@H](CN(C)C(=O)Nc1cccc3ccccc13)O2 | active: 63.3%
C[C@H]1CN([C@@H](C)CO)C(=O)c2cc(NC(=O)CCCCCC(=O)Nc3ccccc3N)ccc2O[C@H]1CN(C)C(=O)Nc1ccc(F)cc1 | active: 34.7%
Cc1noc(C)c1S(=O)(=O)N(C)C[C@@H]1OCCCC[C@@H](C)Oc2ccc(NS(=O)(=O)c3ccc(Cl)cc3)cc2C(=O)N([C@H](C)CO)C[C@H]1C | active: 30.8%
CC(C)NC(=O)N(C)C[C@H]1Oc2c(NS(=O)(=O)c3cn(C)cn3)cccc2C(=O)N([C@H](C)CO)C[C@@H]1C | inconclusive: 59%
COC(=O)[C@H]1[C@H](CO)[C@H]2Cn3c(ccc(-c4ccccc4)c3=O)[C@H]2N1CCc1ccccc1 | inactive: -4.43%
CC(=O)OCC(O)C1(O)CCC2C3CCC4=CC(=O)CCC4(C)C3C(O)CC21C (stereo not drawn) | active: 22.4%
C[C@@H]1CN([C@@H](C)CO)C(=O)CCCn2nncc2CO[C@H]1CN(C)S(=O)(=O)c1cccc(C#N)c1 | inconclusive: 49%
CCCN1CCCCC(NC(=O)c2ccc3ccccc3c2)C1=O (stereo not drawn) | inconclusive: 70.3%
Cc1noc(C)c1S(=O)(=O)N1CCCCC1c1cc(C(=O)Nc2cccc3c2CCCC3)no1 (stereo not drawn) | inconclusive: 53.9%
CNC(=O)C[C@H]1CC[C@@H]2[C@H](COc3ccc(NC(=O)c4ccc(C(F)(F)F)cc4)cc3C(=O)N2C)O1 | inconclusive: 42.7%
CCOC(=O)C1CCCN(CC(=O)c2c[nH]c3ccc(C)cc23)C1 (stereo not drawn) | inconclusive: 21.1%
COc1ccccc1/C=C/CN1CCCC(CO)(Cc2cccc(Cl)c2)C1 (stereo not drawn) | inconclusive: 36.8%
COc1ccc(NC(=O)Nc2ccc3c(c2)C(=O)N([C@@H](C)CO)C[C@H](C)[C@H](CN(C)C(=O)Cc2ccccc2)OCCCC[C@H](C)O3)cc1 | active: 21.2%
C[C@H]1CN([C@@H](C)CO)C(=O)c2cccc(NS(=O)(=O)c3ccc(Cl)cc3)c2O[C@@H]1CN(C)Cc1ccc(-c2ccccc2)cc1 | inconclusive: 34%

Structures from the list above that contain two or more sulfur atoms:
SMILES | CPE inhibition
Cc1csc2sc(-c3ccnc(SCC(=O)NCc4ccccc4)n3)c(C)c12 | inactive: -1.39%
CN(C(=S)SCc1ccccc1)C1CCS(=O)(=O)C1 (stereo not drawn) | inconclusive: 25.1%
O=[N+]([O-])c1cccc(S(=O)(=O)Nc2nc3ccccc3nc2Nc2cccc(S(=O)(=O)N3CCCCC3)c2)c1 | inactive: -2.41%
COc1ccc(CNC(=O)CCS(=O)(=O)c2ccc3c(c2)NC(=O)CS3)cc1 | active: 35.1%
Cc1noc(C)c1S(=O)(=O)N(C)C[C@@H]1OCCCC[C@@H](C)Oc2ccc(NS(=O)(=O)c3ccc(Cl)cc3)cc2C(=O)N([C@H](C)CO)C[C@H]1C | active: 30.8%

Later entries:

SMILES | CPE inhibition
COc1ccc(S(=O)(=O)Nc2ccc3c(c2)C(=O)N([C@@H](C)CO)C[C@@H](C)[C@H](CN(C)Cc2ccc(C(=O)Nc4ccccc4N)cc2)OCCCC[C@@H](C)O3)cc1 | inactive: -9.74%
O=C(Nc1ccc(S(=O)(=O)NC2=NCCCCC2)cc1)c1cccs1 | active: 65.4%
COc1ccc(-c2cc3nc(NCCCN(C)C)n(C)c(=O)c3s2)cc1OC | inactive: 12%
C/C=C/c1ccc([C@H]2[C@H](CO)N(C(C)=O)[C@H]2CN(C)C(=O)CN(C)C)cc1 | inconclusive: 53.1%
CSCCC(NS(=O)(=O)c1cccc(C(F)(F)F)c1)C(=O)N(C)CCOc1ccc(Cl)cc1 (stereo not drawn) | inconclusive: 37.4%
C[C@H](NC(=O)C[C@H]1C=C[C@H](NC(=O)C2CCC2)[C@@H](CO)O1)c1ccccc1 | inactive: -3.89%
CCCn1c(SCC(=O)NNC(=O)c2ccc(C)cc2)nnc1C(C)C | inconclusive: 24.1%
OC(CN1CCC(Cc2ccccc2)CC1)c1ccccc1 (stereo not drawn) | inconclusive: 34.3%
O=C(CN1C(=O)C2CCCCC2C1=O)N1CCN(c2ccc(F)cc2)CC1 (stereo not drawn) | inconclusive: 21%
O=C(c1ccccn1)N1C[C@@H]2[C@H](c3ccccc31)[C@H](CO)N2C(=O)Nc1ccccc1Cl | inconclusive: 22.2%
O=C(O)c1nn(Cc2nc3ccccc3o2)c(=O)c2ccccc12 | inconclusive: 36.4%
CCCCn1c(N)c(N(CC(C)C)C(=O)CC2CCCC2)c(=O)[nH]c1=O | inconclusive: 55.8%
COc1cccc(CNC(=O)C[C@H]2C=C[C@H](NC(=O)C3CCOCC3)[C@@H](CO)O2)c1 | active: 20.8%
O=C(NCc1ccccc1)c1cc(C2CCCN(C(=O)c3ccc4c(c3)CCO4)C2)on1 (stereo not drawn) | inconclusive: 52%
CSc1ccc(Cl)c(C(=O)OCC(=O)N2CCN(c3ccccc3)CC2)c1 | inconclusive: 25.9%
O=C(Cc1ccc(NC(=O)C2CCN(C(=O)c3ccccc3)CC2)cc1)Nc1cccc(C(=O)N2CCCCC2)c1 | inconclusive: 29.5%
CCOc1ccc(NC(=O)CN2C(=O)CSC2=O)cc1 | inconclusive: 22.7%
CC(C)OCCCNC(=O)c1ccc(CS(=O)(=O)c2cccc(C(F)(F)F)c2)o1 | inconclusive: 51.4%
CC(C)c1ccc(N(CCc2ccccn2)C(=O)C(C)(C)C)cc1 | inconclusive: 62.4%
COC(=O)c1ccc(/C=N/NC(=O)CNc2cccc(C)c2)cc1 | inactive: -1.64%
C[C@@H]1CN([C@@H](C)CO)C(=O)c2cccc(N(C)C)c2O[C@@H]1CN(C)C(=O)Nc1cccc2ccccc12 | inactive: 14.5%
C[C@@H]1CN([C@H](C)CO)C(=O)c2cc(NC(=O)CCC(F)(F)F)ccc2O[C@H]1CN(C)S(=O)(=O)c1cccs1 | inconclusive: 22.7%
O=C(NCc1ccccc1)c1onc(CSc2ccccc2)c1C(=O)NCC1CC1 | inconclusive: 52.3%
